# Library screen at single concentrations

Chains of the proteins cited; added tags and fusions are not shown. Residues count along the entry.
UniProt Q4DA54, 1-478: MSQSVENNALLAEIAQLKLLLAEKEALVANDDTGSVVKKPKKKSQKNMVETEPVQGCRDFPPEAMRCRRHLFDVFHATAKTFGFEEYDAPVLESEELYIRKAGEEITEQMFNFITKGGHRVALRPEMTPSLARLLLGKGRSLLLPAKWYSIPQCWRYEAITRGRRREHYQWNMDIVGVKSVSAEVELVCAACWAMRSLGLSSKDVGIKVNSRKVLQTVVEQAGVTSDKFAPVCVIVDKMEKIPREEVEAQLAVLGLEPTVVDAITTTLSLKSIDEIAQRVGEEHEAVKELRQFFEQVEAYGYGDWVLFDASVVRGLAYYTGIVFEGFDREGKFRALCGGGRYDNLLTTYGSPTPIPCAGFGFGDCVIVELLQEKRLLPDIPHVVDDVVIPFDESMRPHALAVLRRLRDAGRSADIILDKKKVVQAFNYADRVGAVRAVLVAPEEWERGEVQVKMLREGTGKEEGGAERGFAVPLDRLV
UniProt A4I591, 1-473: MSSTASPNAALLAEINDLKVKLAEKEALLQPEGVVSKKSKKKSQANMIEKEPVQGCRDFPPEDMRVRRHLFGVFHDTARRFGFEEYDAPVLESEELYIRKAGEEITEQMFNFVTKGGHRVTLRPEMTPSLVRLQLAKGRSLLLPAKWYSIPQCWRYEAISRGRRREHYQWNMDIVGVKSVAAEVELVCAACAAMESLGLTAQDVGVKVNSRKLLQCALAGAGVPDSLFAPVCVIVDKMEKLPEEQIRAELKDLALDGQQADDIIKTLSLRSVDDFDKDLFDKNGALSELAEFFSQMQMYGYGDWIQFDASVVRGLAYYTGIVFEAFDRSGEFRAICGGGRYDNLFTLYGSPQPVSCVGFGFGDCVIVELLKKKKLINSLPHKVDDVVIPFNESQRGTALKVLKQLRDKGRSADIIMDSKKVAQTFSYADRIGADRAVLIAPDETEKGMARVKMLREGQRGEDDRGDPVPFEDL
UniProt P9WPC5, whole entry: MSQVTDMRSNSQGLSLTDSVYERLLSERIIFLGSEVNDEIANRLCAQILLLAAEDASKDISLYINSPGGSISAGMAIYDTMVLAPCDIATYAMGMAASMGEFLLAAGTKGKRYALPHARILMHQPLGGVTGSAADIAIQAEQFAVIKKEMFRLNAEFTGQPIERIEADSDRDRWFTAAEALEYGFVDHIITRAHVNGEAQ
UniProt P9WPC3, whole entry partner: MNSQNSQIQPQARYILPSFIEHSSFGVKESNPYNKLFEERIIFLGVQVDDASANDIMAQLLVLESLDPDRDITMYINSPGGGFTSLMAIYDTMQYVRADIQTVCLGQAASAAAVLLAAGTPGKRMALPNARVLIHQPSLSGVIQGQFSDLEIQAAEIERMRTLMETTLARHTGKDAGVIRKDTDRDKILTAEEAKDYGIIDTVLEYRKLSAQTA

From ChEMBL document CHEMBL3988442, “University of Dundee, Small-Polar-MMV Screening Library” (2021).

The filed quantity is “Percent Effect” (%).
The controls that fix the scale are not given in the record; negative values are as filed.
Compounds were drawn at random from those tested, without regard to their results.
Two or more numbers in one place are separate tests of the same structure; such repeats can differ widely.
A dash means the value is not listed here; it may have been measured.

A: 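Assay of Toxoplasma gondii numbers, read through their beta-galactosidase reporter with a colour substrate. Tested at 10 µM. Higher reads as fewer parasites (inferred from which compounds were picked for retests). Size under these conditions: about 67,000 compounds, about 260 of them at 50% or above in at least one test.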
B: 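Cell assay of Leishmania donovani living inside macrophages; the read-out is not stated. Concentration: 30 µM. Higher reads as stronger inhibition (inferred: compounds with an IC50 in retests scored well above the rest). Size under these conditions: about 69,000 compounds, about 1,000 of them at 50% or above in at least one test.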
C: 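Enzyme assay of histidyl-tRNA synthetase; the read-out is not stated. Target: Histidine-tRNA ligase, Trypanosoma cruzi CL Brener (UniProt Q4DA54). Compounds at 30 µM. Higher reads as stronger inhibition (inferred: compounds with an IC50 in retests scored well above the rest). About 69,000 compounds were tested under these conditions; 0.045% (about 31) showed 50% or more at least once.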
D: 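Histidine-tRNA ligase, Leishmania infantum (UniProt A4I591). Enzyme assay of histidyl-tRNA synthetase; the read-out is not stated. Compounds at 30 µM. Direction is inferred from retests: higher values go with stronger inhibition. The assay is labelled LdHisRS but filed under L. infantum. Size under these conditions: about 69,000 compounds, about 410 of them at 50% or above in at least one test.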
E: 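ClpP1P2, Mycobacterium tuberculosis (UniProt P9WPC5 and UniProt P9WPC3). Protease assay of ClpP1P2, read by the AMC dye that it sets free. Compounds at 50 µM. Higher reads as stronger inhibition, judged from the few compounds that gave an IC50. Most other retested compounds had strongly negative values. About 69,000 compounds were tested under these conditions; 0.015% (about 10) showed 50% or more at least once.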
F: 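Whole-parasite assay of Trypanosoma brucei over 72 hours; the read-out is not stated. Tested at 30 µM. Direction is inferred from retests: higher values go with stronger inhibition. Values scatter widely below zero; nearly all retest evidence comes from the higher of the two concentrations used. About 64,000 compounds were tested under these conditions; 1.5% (about 940) showed 50% or more at least once.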

| compound | A | B | C | D | E | F |
|---|---|---|---|---|---|---|
| `Cc1cc(C2CCCN(CC(=O)N3CCCc4ccccc43)C2)n[nH]1` (centres undefined) | 6.999% | -6.189% | 7.182% | 8.29% | -4.312% | 1.182% |
| `O=S(=O)(c1ccc(F)cc1)N1CCCCC1c1cc[nH]n1` (centres undefined) | 7.153% | 15.86% and -2.986% | 2.198% | 10.14% | -16.76% | 2.932% |
| `O=c1c2ccccc2nc2n1CCC2O` (centres undefined) | 12.79% | 18.2% | -0.9901% | 25% | -6.219% | -6.633% |
| `CC(=O)c1cc(CN2C[C@@H](CN3CCCC3)[C@@H](CO)C2)n(C)c1` | 8.904% | 12.8% | 9.211% | 14.17% | 1.554% | -15.72% |
| `O=C(O)C(F)(F)F.O=C(O)C(F)(F)F.[H][C@@]12CCCO[C@]1([H])[C@H](NC(=O)c1cscn1)CN2Cc1cnn(C)c1` | 7.718% | 8.271% | - | - | - | -11.13% |
| `CN(C)[C@@H]1CCN(CC2CC2)[C@H]1Cc1cnn(C)c1.O=C(O)C(F)(F)F.O=C(O)C(F)(F)F` | -17.06% | 17.2% | - | - | - | -399.8% |
| `CCN(Cc1nc(Cc2ccccc2)no1)C1CC1` | -14.12% | -6.168% | 5.473% | 15.66% | -3.207% | -46.17% |
| `Cc1cnc2c(S(=O)(=O)NCC3CCOC3)cccc2c1` (centres undefined) | -37.9% | 2.907% | 1.156% | 2.632% | -11.37% | -4.694% |
| `c1ncn(CC2CN(Cc3ccc4c(c3)OCCO4)CCO2)n1` (centres undefined) | -25.94% | -9.474% | 7.429% | 18.64% | -2.782% | - |
| `CCCNC(=O)CN1CCN(c2nc(CC)ns2)CC1` | -0.4327% | 29.49% | 5.195% | 10% | 2.692% | -38.77% |
| `CCOCCN1CCN(Cc2nc(CC(C)C)no2)CC1` | -1.098% | 19.46% | 5.882% | 12.84% | -17.41% | - |
| `CCc1nccn1-c1cncc(C2CCCN2)n1.Cl` (centres undefined) | -4.225% | 20.2% | - | - | - | -8.115% |
| `CC(NCc1nnc2n1CCCC2)c1nc(C(C)(C)C)no1` (centres undefined) | -20.89% | -5.53% | 12.73% | 15.56% | -2.17% | -53.65% |
| `O=C([C@H]1CN(Cc2ccc(F)cc2)C[C@H]2OCC[C@@H]12)N1CCCO1` | - | - | 0.4975% | 11.11% | -14.66% | - |
| `CC(C(=O)O)n1nc(C(F)(F)F)c(Cl)c1C1CC1` (centres undefined) | 9.102% | 21.69% | 4.386% | 10.62% | -1.596% | - |
| `CCS(=O)(=O)N(C)C1CCN(c2cccc(F)c2C(C)=O)CC1` | 21.51% | 32.84% | 1.02% | 16.13% | -14.55% | -29.46% |
| `Cc1nc(CN2CCN(C(=O)CCc3cccnc3)CC2)no1` | 3.536% | 11.88% | 0% | 9.836% | 5.973% | -10.71% |
| `Cn1c(C(=O)N2CCC(C3OCCO3)CC2)c(Cl)c2ccccc21` | -25.66% | 13.4% | -4.082% | 11.57% | -6.142% | -14.62% |
| `COc1ccnc(NC(Cc2ccccc2)C(=O)N(C)C)n1` (centres undefined) | 19.35% | -18.49% | -2.128% | 18.57% | -15.37% | -39.12% |
| `COc1ncccc1CN1C[C@@H]2COC[C@]2(COc2cccnc2)C1` | - | - | 4.878% | 20.51% | -0.1175% | - |
| `Cc1nc(CCC(N)=O)cc(C2CCNCC2)n1` | 16.32% | -20.34% and 8.88% | -2.222% | -4.124% | 17.37% | -18.34% |
| `O=C(NCCc1ccccn1)[C@@]12CCO[C@@H]1CCN(C1CCC1)C2` | - | - | 3.883% | 11.54% | -6.438% | - |
| `CC(CNC(=O)c1ccc(Cl)cc1F)N1CCCC1` (centres undefined) | 13.54% | 17.75% | 7.179% | 2.041% | -4.206% | -10.14% |
| `CCCS(=O)(=O)N1C[C@@H]2CC[C@H](C1)N(Cc1cscn1)C2=O` | - | - | 2.941% | 12.8% | -22.17% | - |
| `Cc1noc([C@@]23CCO[C@@H]2CCN(C(=O)c2c(C)noc2C)C3)n1` | - | - | 4.478% | 0% | -20.18% | - |
| `Cc1ccccc1-c1noc(CN2CCOC(Cn3cccn3)C2)n1` (centres undefined) | 7.882% | 29.87% | 2.367% | 10.71% | -17.74% | 9.393% |
| `CS(=O)(=O)N1CCN(CC(=O)Nc2cccc(Cl)c2)CC1` | 11.24% | 10.09% | 4.663% | 17.2% | 11.44% | -7.626% |
| `O=C(NCc1cc(Br)cs1)Nc1cn[nH]c1` | -3.926% | 13.89% | 8.458% | 18.07% | 4.973% | -39.66% |
| `COCCN1CCN(Cc2cnc(C)nc2)CC1` | -59.5% | 24.84% and 24.63% | 2.985% | 13.68% | 8.175% | -10.66% |
| `O=C(c1ccco1)N1C[C@H]2CCCN(Cc3ccncc3)[C@H]2C1` | - | - | 4.132% | 7.273% | 5.258% | - |
| `O=C(CCCc1ccc(Cl)cc1)N1CCC(c2nnc[nH]2)CC1` | 25.18% | -24.63% | 7.328% | 6.329% | 0.5072% | -12% |
| `Cc1cccc(CN2CCOCC3(CCN(C4CCOCC4)C3)C2)c1` (centres undefined) | - | - | 9.091% | 14.55% | 4.485% | - |
| `O=C(NCCc1csc(-c2cccnc2)n1)c1cnn2c1CCCC2` | 11.84% | 35.12% | -3.017% | 21.52% | -7.607% | 18.67% |
| `Cc1cccc(N2CCN(C(=O)CCCC(=O)N(C)C)C(C)C2)n1` (centres undefined) | 9.787% | 25.63% and 8.125% | 6.098% | 2.632% | -5.835% | -27.41% |
| `CCC(CC)c1cc(C(=O)N2CCN(C(C)C(N)=O)CC2)on1` (centres undefined) | -2.021% | 27.41% | 3.448% | 14.47% | 2.194% | -2.475% |
| `CN(Cc1cccnc1)C1CC2(CCN(C(=O)c3cscn3)CC2)C1` | 1.092% | 15.6% | 2.299% | 7.895% | 9.228% | -9.444% |
| `OC1(CNCc2ccc(F)c(C(F)(F)F)c2)CCSCC1` | 3.413% | 40.38% | 2.956% | 4.11% | 1.295% | -41.19% |
| `Cc1cccc(Cn2ccc(NS(C)(=O)=O)n2)c1` | 10.73% | -7.644% | 2.51% | 0.9434% | -5.395% | 4.543% |
| `O=C1CN(c2ccc(C(=O)N3CCc4ccccc43)cn2)CCN1` | -24.46% | -1.771% | 0% | 17.7% | -13.91% | -102.6% |
| `Cc1nccc(C(=O)NC(COCC(C)C)c2ccco2)n1` (centres undefined) | 7.443% | -4.338% | 1.453% | 11.4% | -15.88% | -26.79% |
| `CC(C)CN1CCOC[C@H](Oc2ccc(S(C)(=O)=O)cc2)C1` | 3.448% | -2.475% | 3.483% | -11.11% | -6.923% | -17.34% |
| `COCc1nc(NC(C)Cc2cc(C)n[nH]2)c2cnn(C)c2n1` (centres undefined) | 8.322% | 11.4% | 6.122% | 20% | -1.372% | 3.46% |
| `Cc1ncc2c(n1)CN(C(C(N)=O)c1ccc(F)cc1)CC2` (centres undefined) | 8.346% | 5.685% | 16.02% | 15.49% | 1.637% | -31.29% |
| `Cc1ccsc1C(=O)N1CCc2ncc(CN(C)C)n2CC1.O=C(O)C(F)(F)F` | 1.068% | 32.37% | - | - | - | -24.83% |
| `COC(=O)NCC(=O)NCc1nn(-c2ccccc2)c2c1CCC2` | -37.79% | 24.46% | 5.294% | 5.505% | -25.49% | - |
| `N#Cc1ccccc1CN1C[C@H]2CC[C@@H]1CN(C(=O)c1cccnc1)C2` | - | - | 2.513% | 20% | -12.38% | - |
| `NC(=O)CN1CCCC(C(=O)N2CCC(O)(c3ccccc3)CC2)C1` (centres undefined) | 24.53% | 0.4655% | 10.24% | 15.38% | -8.959% | -28.03% |